Results reported in patent US12714696B2, “Low dose fluralaner compositions for protection against parasitic invertebrate pest” (VIRBAC, priority 2019, dated 2026).
At least one read-out could not be matched to a standard name with certainty.

Key:
[1] = Pharmacokinetics after repeated oral administration of 35 μg/kg of fluralaner in dogs after feeding; type: in vivo, beagle dogs; settings: oral studies in dogs, compared to literature data
Procedure: The first objective of the study was to obtain the pharmacokinetic parameters after repeated oral administration of 35 μg/kg of fluralaner in dogs, 30 to 35 minutes after feeding.
The second objective was to investigate the pharmacodynamics between the fluralaner plasmatic dose and the effectiveness against fleas. • IVP: Investigational Veterinary Product, is pure Fluralaner+DMSO (35 μg/kg on Days 0 to 3 (0.35 mL/kg)) • Control product is DMSO (0.35 mL/kg on Days 0 to 3)
On Days 0, 1, 2 and 3, all dogs assigned to group 2 received the Investigational Veterinary Product. On Days 0 to 3 all dogs in group 1 received the control product at a volume equal to the dogs in group 2. […] The quantity of Investigational Veterinary Product and control product administered was calculated according to the dog's individual body weight measured on Day −1. […]
(§1) On days of administration of pre-Investigational Veterinary Product or Control Product, dogs were fed (the same dog food) approximately half of their normal daily ration 30 minutes to 35 minutes prior to administration. Food consumed by the time of administration was calculated and recorded. […]
(§2) The PK parameters of fluralaner were calculated using a non-compartmental approach. […]
(§3) Cmax the observed maximum concentration in plasma measured after dosing. […]
(§4) t1/2 the terminal plasma half-life (t1/2) was calculated according to the following equation: […]

[2] = Pharmacokinetics after repeated oral administration of 250 μg/kg and 35 μg/kg of fluralaner in dogs after feeding; type: in vivo, beagle dogs; settings: oral 250/35/600 μg/kg regimen
Procedure: The first objective is to obtain the pharmacokinetic parameters after repeated oral administration of […] and 35 μg/kg of fluralaner in dogs after feeding.
The second objective is to investigate the pharmacodynamics between the fluralaner plasmatic dose and the effectiveness against ticks. • IVP: Investigational Veterinary Product, is pure Fluralaner+DMSO (250 μg/kg on Days 0 to 3 (0.25 mL/kg), then 35 μg/kg on Days 4 to 9 (0.35 mL/kg), then 600 μg/kg on Day 11) • Control product is DMSO (0.25 mL/kg on Days 0 to 3, then 0.35 mL/kg on Days 4 to 9)
On Days 0, 1, 2 and 3, all dogs assigned to group 2 received the Investigational Veterinary Product. […] The quantity of Investigational Veterinary Product and control product administered was calculated according to the dog's individual body weight measured on Day −1. […]
as §1, §2, §3, §4

[3] = oral; administration to the fed animal; cited from earlier work

Question: Which “bioavailability relative to expected” value [1] does the source give for `Cc1cc(C2=NOC(c3cc(Cl)cc(Cl)c3)(C(F)(F)F)C2)ccc1C(=O)NCC(=O)NCC(F)(F)F` (stereo not drawn) [fluralaner, Fluralaner] here?
Answer: The value was “about 5 times”.

Question: And the “bioavailability relative to expected” value [2]?
Answer: The value was “about 5 times”.

Question: What about the “effect fed/fasted on AUC” value [3] of the same compound?
Answer: The value was “increased the AUC”.
